Where a name gives a salt, the structure may show the parent alone. Some of the results follow. The calls rarely recur for the same compound in another form.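 Kinases, fused to nanoluciferase, were expressed in K562 cells; luminescence was measured every 4 h from 2 to 18 h as percent of control (DMSO = 100%, positive control = 0%). A time point is decreased if signal falls significantly (2 sigma). Hits were called by the authors by a rule that is not shown; the count of time points alone does not decide it.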

Protein sequences, listed by entry. Tags and fused reporters are not part of them. Lines headed by an entry give the natural chain unless they say otherwise; changes in a name come on top.
UniProt P50613: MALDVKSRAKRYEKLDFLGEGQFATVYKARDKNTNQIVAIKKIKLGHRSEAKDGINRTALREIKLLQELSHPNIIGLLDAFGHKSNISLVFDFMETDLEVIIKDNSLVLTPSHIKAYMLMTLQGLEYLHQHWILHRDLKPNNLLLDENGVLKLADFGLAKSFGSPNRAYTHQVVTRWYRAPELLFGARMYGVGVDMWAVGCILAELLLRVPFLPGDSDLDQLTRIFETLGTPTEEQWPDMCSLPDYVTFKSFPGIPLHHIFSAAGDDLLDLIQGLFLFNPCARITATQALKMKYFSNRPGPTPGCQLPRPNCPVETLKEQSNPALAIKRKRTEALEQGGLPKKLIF

Experimental findings from the supplement of paper PMC12823440, “Inhibitors supercharge kinase turnover through native proteolytic circuits” (Nature, 2025) are described below.

This experiment concerns the target CDK7 (UniProt P50613). The experiment in a line: number of time points (of 4; 2 h point missing) at which kinase-Nluc abundance scored as decreased, DMSO-normalised (count); higher = more persistent destabilization. The settings on record: K562; 2-18 h.
`O=c1c(O)c(-c2ccc(O)c(O)c2)oc2cc(O)cc(O)c12` [Quercetin (dihydrate)] (10 µM): the “number of time points” value was determined as 0.

As to `Cc1c(C(=O)N2CCOc3ccc(-c4ccc(N)nc4)cc3C2)ccc(S(C)(=O)=O)c1F` (10 µM), the “number of time points” value was found to be 0.

Regarding `Cc1cc(CS(=O)(=O)c2ccccc2)cc(OCc2ccc(CN3CCC[C@@H]3CO)cc2)c1` [PF-543 (Citrate)] (10 µM), the “number of time points” value was 0.

With `N#CC(=Cc1ccc(O)c(O)c1)C(=O)NCc1ccccc1` (mixture of isomers) (10 µM), the “number of time points” value turned out to be 0.

As to `COc1cc(C(=O)NC2CCN(C)CC2)c(F)cc1Nc1ncc2c(n1)N(C1CCCC1)CC(F)(F)C(=O)N2C` [TAK-960 (dihydrochloride)] (2.5 µM), the “number of time points” value was found to be 0.

`CCCCC[C@H](O)CC(=O)CCc1ccc(O)c(OC)c1` [[6]-Gingerol] (10 µM): the “number of time points” value turned out to be 0.

`COc1cc2ncnc(Nc3cccc(O)c3)c2cc1OC` (10 µM): the “number of time points” value amounted to 1.

In the case of `C[C@H](NC(=O)/C(C#N)=C/c1cccc(Br)n1)c1ccccc1` (2.5 µM), the “number of time points” value was 0.

Regarding `C[C@H](CN(C)C)Oc1nc(Nc2cc3cccc(Cl)c3cn2)cnc1C#N` (10 µM), the “number of time points” value worked out at 1.

On to `COc1cc2c(Nc3ccc(NC(=O)c4ccccc4)cc3)ncnc2cc1OCCCN1CCOCC1` (10 µM), for which the “number of time points” value was 1.

Regarding `Cc1ncc(-c2ccnc(Nc3ccc(S(C)(=O)=O)cc3)n2)n1C(C)C` (2.5 µM), the “number of time points” value turned out to be 3.

As to `COc1cc2ncnc(Nc3cccc(Cl)c3F)c2cc1OC(=O)N1CCN(C)C[C@H]1C` [Zorifertinib] (10 µM), the “number of time points” value came out at 0.

For the molecule `CC(C)(C)c1cc(NC(=O)Nc2ccc(-c3cn4c(n3)sc3cc(OCCN5CCOCC5)ccc34)cc2)no1` [Quizartinib] (10 µM), the “number of time points” value was 0.

`CC(C)c1ccc2oc3nc(N)c(C(=O)O)cc3c(=O)c2c1` [Amlexanox] (10 µM): the “number of time points” value is 0.

For the molecule `Cc1ccc(NC(=O)c2cccc(N(C)C)c2)cc1NC(=O)c1ccc(O)cc1` (10 µM), the “number of time points” value worked out at 0.

With `C=CC(=O)N1CC[C@H](n2nc(C#Cc3cc(OC)cc(OC)c3)c3c(N)ncnc32)C1` [Futibatinib] (10 µM), the “number of time points” value amounted to 0.

Consider `CNC(=O)c1cc(Oc2ccc(NC(=O)Nc3cc(C(C)(C)C)nn3-c3ccc4ncccc4c3)c(F)c2)ccn1` [Rebastinib] (2.5 µM), for which the “number of time points” value was determined as 4.

For the molecule `COc1nccc(-c2c(-c3ccc(F)cc3)ncn2C2CCC(O)CC2)n1` (centres undefined) (10 µM), the “number of time points” value was determined as 0.

Consider `O=c1c(-c2ccc(O)cc2)coc2cc(O)cc(O)c12` [Genistein] (10 µM), for which the “number of time points” value was found to be 0.

For the molecule `CC#CC(=O)N[C@H]1CCCN(c2c(F)cc(C(N)=O)c3[nH]c(C)c(C)c23)C1` [Branebrutinib] (10 µM), the “number of time points” value worked out at 0.

In the case of `CCn1c(=O)c2cc(C(N)=O)c(N)nc2n(C2CC2)c1=O` (10 µM), the “number of time points” value was 0.

Regarding `COc1cc(F)cc([C@@H](CO)NC(=O)[C@@H](C)N2Cc3ccc(-c4nc(NC5CCOCC5)ncc4Cl)cc3C2=O)c1` [ERK1/2 inhibitor 2] (10 µM), the “number of time points” value is 0.

As for `Cc1ccc2c(Nc3ccc(Cl)cc3)nccc2c1Nc1ncccc1-c1ncnc2nc[nH]c12` [Raf inhibitor 1] (2.5 µM), the “number of time points” value was 0.

In the case of `CCCCNc1ncc(-c2ccc(CN3CCOCC3)cn2)c(NC2CCC(O)CC2)n1` (centres undefined) (10 µM), the “number of time points” value amounted to 0.

Take `CC(C)=CC/C=C(\C)[C@H]1CC[C@]2(C)[C@@H]1[C@H](O)C[C@@H]1[C@@]3(C)CC[C@H](O[C@@H]4O[C@H](CO)[C@@H](O)[C@H](O)[C@H]4O[C@@H]4O[C@H](CO)[C@@H](O)[C@H](O)[C@H]4O)C(C)(C)[C@@H]3CC[C@]12C` [Ginsenoside Rg5] (10 µM): the “number of time points” value turned out to be 0.

As for `N#Cc1ccc2[nH]c(O)c(-c3ccc(CN4CCOCC4)cn3)c2c1` (10 µM), the “number of time points” value was found to be 0.

With `Oc1cc(O)cc(/C=C/c2ccc(O)c(O)c2)c1` [Piceatannol] (10 µM), the “number of time points” value worked out at 3.

`CC(C)(C)S(=O)(=O)c1cc2c(Nc3ccc4scnc4c3)ncnc2cc1OCCO` (2.5 µM): the “number of time points” value turned out to be 0.

For the molecule `COc1c(Cl)cc2c([nH]c3cnccc32)c1NC(=O)c1cccnc1C` (10 µM), the “number of time points” value stood at 0.

For `CC(C)C(=O)Nc1ncc(-c2cc(C(F)F)nn2-c2c(Cl)cccc2Cl)s1` (10 µM), the “number of time points” value came out at 4.

Regarding `COc1cc2nc(C)nc(N[C@H](C)c3cc(N)cc(C(F)(F)F)c3)c2cc1O[C@H]1CCOC1` (10 µM), the “number of time points” value stood at 0.

Turning to `COc1cc(OC)c(F)c(COc2cnc(Nc3cnn(CCO)c3)nc2)c1F` (2.5 µM), the “number of time points” value turned out to be 0.

Regarding `O=c1cc(N2CCOCC2)oc2c(-c3ccccc3)cccc12` (10 µM), the “number of time points” value stood at 0.

Regarding `O=C(NOC[C@H](O)CO)c1ccc(F)c(F)c1Nc1ccc(I)cc1F` (2.5 µM), the “number of time points” value amounted to 0.

For `CC(C)(C)c1nc2c3cc[nH]c(=O)c3c3cc(F)ccc3c2[nH]1` [Pyridone 6] (10 µM), the “number of time points” value is 0.

Turning to `COCc1c(-c2ccc(NC(=O)Nc3cc(C(F)(F)F)ccc3F)c(F)c2)c2c(N)ncnn2c1CN1CCOCC1` (2.5 µM), the “number of time points” value is 3.

For the molecule `COCCOc1cc2nccc(Nc3n[nH]c(C)c3C)c2cc1S(=O)(=O)C(C)(C)C` [RIP2 kinase inhibitor 2] (2.5 µM), the “number of time points” value was found to be 0.

Consider `Cc1ccc(F)c(NC(=O)Nc2ccc(-c3cccc4[nH]nc(N)c34)cc2)c1` [Linifanib] (2.5 µM), for which the “number of time points” value turned out to be 0.

For `Cn1nc(C(C)(C)C)cc1NC(=O)Nc1ccc(Oc2ccncc2)cc1` (10 µM), the “number of time points” value amounted to 4.
